{
  "sequences": {"note": "Amino acid sequences for entries named in this document (tags omitted). A change or cut given only in a name is not applied to a line headed by its entry.", "UniProt P43378": "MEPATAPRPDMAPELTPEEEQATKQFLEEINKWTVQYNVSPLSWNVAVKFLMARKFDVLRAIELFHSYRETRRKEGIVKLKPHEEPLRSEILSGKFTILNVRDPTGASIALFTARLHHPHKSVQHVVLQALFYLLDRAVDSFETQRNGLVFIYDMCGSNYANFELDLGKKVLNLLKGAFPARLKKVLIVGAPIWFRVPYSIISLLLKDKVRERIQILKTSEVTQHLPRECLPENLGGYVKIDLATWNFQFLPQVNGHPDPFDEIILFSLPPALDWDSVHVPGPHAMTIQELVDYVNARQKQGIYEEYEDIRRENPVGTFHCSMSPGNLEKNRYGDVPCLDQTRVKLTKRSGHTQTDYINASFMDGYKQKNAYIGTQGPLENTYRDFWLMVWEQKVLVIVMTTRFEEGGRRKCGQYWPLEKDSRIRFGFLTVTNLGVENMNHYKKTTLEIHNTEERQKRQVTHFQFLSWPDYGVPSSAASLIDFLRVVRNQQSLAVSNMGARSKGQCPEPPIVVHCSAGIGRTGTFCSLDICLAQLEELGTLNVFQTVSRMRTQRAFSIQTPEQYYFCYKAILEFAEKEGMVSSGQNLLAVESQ", "UniProt P29350": "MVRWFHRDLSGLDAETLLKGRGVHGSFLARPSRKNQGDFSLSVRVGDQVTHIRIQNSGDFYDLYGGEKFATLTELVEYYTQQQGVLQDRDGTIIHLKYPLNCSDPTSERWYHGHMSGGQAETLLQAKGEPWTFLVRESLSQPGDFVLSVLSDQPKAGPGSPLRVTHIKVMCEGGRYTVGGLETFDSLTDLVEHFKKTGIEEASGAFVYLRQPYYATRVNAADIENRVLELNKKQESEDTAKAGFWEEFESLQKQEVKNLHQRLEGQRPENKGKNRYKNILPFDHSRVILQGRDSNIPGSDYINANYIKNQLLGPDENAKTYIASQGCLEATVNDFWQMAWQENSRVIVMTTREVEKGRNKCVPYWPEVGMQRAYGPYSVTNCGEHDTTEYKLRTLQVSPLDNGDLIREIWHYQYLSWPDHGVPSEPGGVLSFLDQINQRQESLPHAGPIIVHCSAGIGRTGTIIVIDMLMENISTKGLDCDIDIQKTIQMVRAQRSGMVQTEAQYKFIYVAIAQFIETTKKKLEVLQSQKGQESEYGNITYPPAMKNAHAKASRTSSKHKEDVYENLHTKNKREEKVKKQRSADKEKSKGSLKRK"},
  "source": "PubChem BioAssay (EPA / NIEHS)",
  "note": "Values joined by “and” are separate entries in the source; they are usually repeats but may differ in a detail not shown here. Identical values can stand only once. Inconclusive results, whose numbers are uncertain, are shown with a selection of clear calls. Where the call is inconclusive, the potency comes from a doubtful curve fit. Active and inactive are the calls of the source. Rule for the calls: active = hit-call score of the fitted dose curve at least 0.9, where 1 is the maximum; inconclusive = response in the unintended direction; inactive = score below 0.9.",
  "data": [
    {"molecular_target": "human Protein Tyrosine Phosphatase Non-receptor Type 9 (PTPN9), PTPN9 (gene 5780) (UniProt P43378)", "test": "NVS_ENZ_hPTPN9: NovaScreen (NVS) Enzymatic Assay for human Protein Tyrosine Phosphatase Non-receptor Type 9 (PTPN9) (AID 2283209)", "method_in_brief": "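Sf9-expressed enzyme in a cell-free assay, fluorescence read 1.33 h after dosing with mobility-shift separation of substrate and product. Tested at 25 uM in duplicate, then up to 50 uM; signal loss versus DMSO.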", "values": [
      {"smiles": "CCN1CCC2(CC1)COc1cc3c(cc12)N(C(=O)c1ccc(-c2ccc(-c4nnc(C)o4)cc2C)cc1)CC3", "AC50": "inconclusive: 6.39 µM"},
      {"smiles": "CCc1nn(C)c(C(=O)NCc2ccc(C(C)(C)C)cc2)c1Cl", "AC50": "active: 16.4 µM"},
      {"smiles": "O=[N+]([O-])c1ccc(Oc2ccc(Cl)cc2Cl)cc1", "AC50": "inconclusive: 25 µM"},
      {"smiles": "Nc1c(Cl)c(F)nc(OCC(=O)O)c1Cl", "AC50": "inconclusive: 0.00945 µM"},
      {"smiles": "COc1nc(C)nc(NC(=O)NS(=O)(=O)c2ccccc2Cl)n1", "AC50": "inconclusive: 25 µM"},
      {"smiles": "N#CCCCCC#N", "AC50": "inconclusive: 46.3 µM"},
      {"smiles": "[2H]C1([2H])[n+]2ccccc2-c2cccc[n+]2C1([2H])[2H]", "AC50": "inconclusive: 0.111 µM"},
      {"smiles": "Cn1sc(Cl)cc1=O", "AC50": "inconclusive: 25 µM"},
      {"smiles": "CN1CSC(=S)N(C)C1", "outcome": "inactive"}
    ]},
    {"molecular_target": "human Protein Tyrosine Phosphatase Non-receptor Type 6 (PTPN6), PTPN6 (gene 5777) (UniProt P29350)", "test": "NVS_ENZ_hPTPN6: NovaScreen (NVS) Enzymatic Assay for human Protein Tyrosine Phosphatase Non-receptor Type 6 (PTPN6) (AID 2283210)", "method_in_brief": "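Cell-free assay with recombinant PTPN6 expressed in SF9 cells, fluorescent substrate, product separated from substrate by electrophoretic mobility shift; read 1.33 hours after dosing. Primary screen in duplicate at 25 uM, actives retested in concentration series; DMSO baseline.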", "values": [
      {"smiles": "CCOP(=S)(OCC)SCSC(C)(C)C", "AC50": "inconclusive: 25 µM"},
      {"smiles": "Nn1cnnc1", "outcome": "inactive"},
      {"smiles": "[N-]=[N+]=[N-]", "outcome": "inactive"},
      {"smiles": "ClC1(Cl)C2(Cl)C3(Cl)C4(Cl)C(Cl)(Cl)C5(Cl)C3(Cl)C1(Cl)C5(Cl)C24Cl", "note": "(configuration not stated)", "AC50": "inconclusive: 25 µM"},
      {"smiles": "O=C(O)C1C2CCC(O2)C1C(=O)O", "note": "(configuration not stated)", "AC50": "inconclusive: 25 µM"},
      {"smiles": "C=CCC1=C(C)C(OC(=O)C2C(C=C(C)C)C2(C)C)CC1=O", "note": "(configuration not stated)", "AC50": "inconclusive: 26.2 µM"},
      {"smiles": "O=[N+]([O-])c1ccc(O)c([N+](=O)[O-])c1", "AC50": "inconclusive: 25 µM"},
      {"smiles": "CCC(C)(c1ccc(O)cc1)c1ccc(O)cc1", "AC50": "inconclusive: 6.49 µM"},
      {"smiles": "CCC1(c2ccccc2)C(=O)N=C(O)NC1=O", "note": "(configuration not stated)", "AC50": "inconclusive: 5.86 µM"},
      {"smiles": "CCC(C)c1ccc(O)cc1", "note": "(configuration not stated)", "outcome": "inactive"},
      {"smiles": "O=C1CCCO1", "outcome": "inactive"},
      {"smiles": "CCNc1nc(Cl)nc(NC(C)(C)C)n1", "AC50": "inconclusive: 25 µM"},
      {"smiles": "Oc1cc(Cl)ccc1Oc1ccc(Cl)cc1Cl", "AC50": "inconclusive: 25.5 µM"},
      {"smiles": "ClC(Cl)=C(c1ccc(Cl)cc1)c1ccc(Cl)cc1", "AC50": "inconclusive: 25 µM"},
      {"smiles": "CCOP(=S)(OCC)Oc1nc(Cl)c(Cl)cc1Cl", "outcome": "inactive"},
      {"smiles": "COc1cc(-c2ccc(N)c(OC)c2)ccc1N", "AC50": "inconclusive: 8.36 µM and inconclusive: 37.8 µM"},
      {"smiles": "C1CC2OC2CC1C1CO1", "note": "(configuration not stated)", "outcome": "inactive"},
      {"smiles": "C=CC(=O)NCNC(=O)C=C", "AC50": "inconclusive: 25 µM"}
    ]}
  ]
}
